The target of this assay is T1, human JPH2 in pVN155 (pVN155/Jph2) (human) (UniProt Q9BR39).
T1 sequence: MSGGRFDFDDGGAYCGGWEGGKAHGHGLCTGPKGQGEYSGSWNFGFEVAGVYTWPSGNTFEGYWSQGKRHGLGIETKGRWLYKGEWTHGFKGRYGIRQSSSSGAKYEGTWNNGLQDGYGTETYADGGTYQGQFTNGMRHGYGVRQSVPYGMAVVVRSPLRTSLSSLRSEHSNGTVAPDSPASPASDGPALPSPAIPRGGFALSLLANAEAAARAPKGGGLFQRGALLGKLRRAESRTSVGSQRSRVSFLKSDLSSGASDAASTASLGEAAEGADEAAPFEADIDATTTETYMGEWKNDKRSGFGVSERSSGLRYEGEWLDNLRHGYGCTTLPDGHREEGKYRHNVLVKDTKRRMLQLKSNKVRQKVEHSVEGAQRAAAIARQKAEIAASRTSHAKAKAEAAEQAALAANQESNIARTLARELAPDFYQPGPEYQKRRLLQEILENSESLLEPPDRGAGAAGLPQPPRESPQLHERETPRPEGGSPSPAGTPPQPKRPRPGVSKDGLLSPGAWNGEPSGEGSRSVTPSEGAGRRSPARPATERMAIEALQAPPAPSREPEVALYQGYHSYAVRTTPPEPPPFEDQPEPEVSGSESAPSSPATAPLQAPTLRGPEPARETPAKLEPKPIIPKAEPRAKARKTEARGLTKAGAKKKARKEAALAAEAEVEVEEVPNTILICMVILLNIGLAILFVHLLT
In words: split reporter.

Results are given in words; binding and its absence hold for the method and conditions named. In cells and extracts the contact can be indirect. A result given as binding can be weak or reduced; the word gives no strength.

mouse JCN in pVC155 (pVC155/Jcn): the binding entry is recorded as “binds”.

The record behind these values is publication doi:10.1101/2022.10.23.513420.
